Test results published in paper PMC10359629.
For some of these results: No signal at the amounts used counts as a negative. Tags and fusion partners may be left off the protein sequences shown. For some of these results: The exact form of at least one protein or probe is not confirmed.

How the values were obtained:
[1] = biological target: T1, DinB-PAD (Escherichia coli) (UniProt Q47155); assay: NMR titration; details: NMR titrations: NMR buffer (composition in Supplementary Table S2, not fully given), 298 K; recombinant protein; residues 228-351; protein details: His6-SUMO, cleaved with SenP1
T1 sequence (looked up): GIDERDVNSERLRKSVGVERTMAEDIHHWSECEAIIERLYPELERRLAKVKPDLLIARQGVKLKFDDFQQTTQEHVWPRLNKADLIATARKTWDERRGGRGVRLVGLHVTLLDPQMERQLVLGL

[2] = biological target: T2, DinB (DNA polymerase IV) (Escherichia coli) (UniProt Q47155); assay: BLI; details: 10 mM MgSO4; BLI: 50 mM KPi pH 6.5, 50 mM NaCl, 10 mM MgSO4, 1 mM TCEP, 303 K; recombinant protein; residues 1-351; protein details: N-terminal His6
T2 sequence (looked up): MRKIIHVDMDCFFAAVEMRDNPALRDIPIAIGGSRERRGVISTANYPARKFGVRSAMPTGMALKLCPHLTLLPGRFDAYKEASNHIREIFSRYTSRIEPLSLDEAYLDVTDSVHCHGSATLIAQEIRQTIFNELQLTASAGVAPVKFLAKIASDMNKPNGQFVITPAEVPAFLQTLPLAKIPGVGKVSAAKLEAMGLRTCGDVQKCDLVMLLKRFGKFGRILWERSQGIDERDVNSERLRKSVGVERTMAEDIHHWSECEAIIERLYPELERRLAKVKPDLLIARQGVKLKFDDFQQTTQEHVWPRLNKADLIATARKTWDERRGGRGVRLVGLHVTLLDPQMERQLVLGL

[3] = biological target: T3, DinBΔPAD (Escherichia coli) (UniProt Q47155); assay: BLI; details: 10 mM MgSO4; BLI: 50 mM KPi pH 6.5, 50 mM NaCl, 10 mM MgSO4, 1 mM TCEP, 303 K; recombinant protein; residues 1-230
T3 sequence (looked up): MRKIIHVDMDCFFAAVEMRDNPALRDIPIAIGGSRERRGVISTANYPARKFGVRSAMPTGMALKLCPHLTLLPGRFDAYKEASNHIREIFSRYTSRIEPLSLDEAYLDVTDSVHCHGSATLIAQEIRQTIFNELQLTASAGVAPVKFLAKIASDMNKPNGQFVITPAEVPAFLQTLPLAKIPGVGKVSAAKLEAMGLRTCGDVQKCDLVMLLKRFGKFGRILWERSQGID

[4] = biological target: T1, DinB-PAD (Escherichia coli); assay: BLI; details: 10 mM MgSO4; BLI: 50 mM KPi pH 6.5, 50 mM NaCl, 10 mM MgSO4, 1 mM TCEP, 303 K; recombinant protein; residues 228-351; protein details: His6-SUMO, cleaved with SenP1

Sequence	binding result [1]	Kd [2]	Kd [3]	binding result [4]
TCTAGGGTCCTAGGACCC (double strand) [18mer dsDNA]	no binding	–	–	–
TCTAGGGTCCTAGGACCC (double strand) [biotin-18mer dsDNA (BLI)]	–	5.3 nM	2 nM	no binding
